The other results are listed elsewhere or left out.

The chains behind the UniProt entries cited, without tags or fusion partners.
UniProt Q0JBA9, entry or part of it: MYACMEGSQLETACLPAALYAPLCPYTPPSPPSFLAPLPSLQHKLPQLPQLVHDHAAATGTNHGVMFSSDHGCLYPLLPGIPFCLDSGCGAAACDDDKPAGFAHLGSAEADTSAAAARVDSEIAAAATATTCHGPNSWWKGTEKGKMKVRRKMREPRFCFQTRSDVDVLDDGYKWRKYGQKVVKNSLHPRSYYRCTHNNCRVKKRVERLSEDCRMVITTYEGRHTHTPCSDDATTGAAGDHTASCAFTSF

Among the data in paper PMC7819943, “Rice protein-binding microarrays: a tool to detect cis-acting elements near promoter regions in rice” are binding signal values, retold here.

This experiment has as its target OsWRKY34 (Oryza sativa, UniProt Q0JBA9 1-250). In words: protein-binding microarray (RPBM); PBS, 2% BSA, 51.3 ng/ul salmon testes DNA, 50 uM zinc acetate, 200 nM TF, 25 C, 1 h; high values mean tight binding. To be noted: protein: recombinant; tags: N-terminal polyhistidine and DsRed monomer fusion (pET32a); label: CyDye5-dUTP incorporated in the synthesized complementary strand; 3' TTTTT single-stranded linker to array surface; dsDNA, one strand shown. The essentials: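 Binding signal is reported as fluorescence intensity per feature (arbitrary units) from an Axon 4000B scanner. Incubation used 200 nM of each Ni–NTA-purified, N-terminally polyhistidine- and DsRed-fused transcription factor from E. coli BL21-CodonPlus on a double-stranded custom Agilent array for 1 h at 25 °C, with 50 µM zinc acetate in the buffer, followed by washing.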
With “AAGTTTTATTTATATATTTTTTTTTCATTTGCAAATCGGTCGGAGTCACCTAGTGCAG”, the binding signal is 8820 fluorescence intensity (a.u.).

Turning to “GGATTTAAGTATCACATTTACGTCTATTTTTTCTTTTAGTCGGAGTCACCTAGTGCAG”, the binding signal was 9650 fluorescence intensity (a.u.). The result for “TAGTAGTCTTGGTATGCAGTATTTATTTATTTAAATTTTTCGGAGTCACCTAGTGCAG” reads 8180 fluorescence intensity (a.u.). For “TTTTGACGACCCTAGCAATATTGCTATACACTCTTCATTCCGGAGTCACCTAGTGCAG” the value was 10700 fluorescence intensity (a.u.); for “TAGTGGATGAGGTTGTACTGCGCCATCTGGTTCGACCACCCGGAGTCACCTAGTGCAG”, 9730 fluorescence intensity (a.u.); for “CTGAGACAAGGGAATGCTTGGGGATCGGGGTAATTGATGACGGAGTCACCTAGTGCAG”, 8090 fluorescence intensity (a.u.). The result for “TATAAGTATTTTCTATTTGCGTAAGTTTGGTTGCATTGTACGGAGTCACCTAGTGCAG” reads 8930 fluorescence intensity (a.u.); that for “AATTCTCTTTTTACCTCTGCAAAAATAATTCTTTTTTTATCGGAGTCACCTAGTGCAG”, 9190 fluorescence intensity (a.u.).

As for “CTCTGTTCTTGTTGTTCTTCACCACCATTGAGCTACCATCCGGAGTCACCTAGTGCAG”, the binding signal is 11400 fluorescence intensity (a.u.).

Regarding “CCCTCCCGCGCCGCCGCCCTCCGGTTGTCTTCCTCGCGGTCGGAGTCACCTAGTGCAG”, the binding signal was 9420 fluorescence intensity (a.u.). Take “CAGTCCGATATCCTCTTTGCCAAGCTCACGGCCCAGTACGCGGAGTCACCTAGTGCAG”: the binding signal is 10300 fluorescence intensity (a.u.).

Turning to “CCAACAAGGCCTACTCGCACGTCGTCACTCCGTCCATCTCCGGAGTCACCTAGTGCAG”, the binding signal is 8220 fluorescence intensity (a.u.). On to “CGGAGTTTGATTGCCCTATAGCTTTTTCACTCGTTTATCACGGAGTCACCTAGTGCAG”, for which the binding signal was 8310 fluorescence intensity (a.u.). As to “GGGGTTTGTCCCATCTCGCCTTTCTTAAGTTCTTTTCTGTCGGAGTCACCTAGTGCAG”, the binding signal is 9380 fluorescence intensity (a.u.). The result for “GATCCGTCCGTCCGCCCGCCCGTCGTCGTCGCGCGCCATGCGGAGTCACCTAGTGCAG” reads 8290 fluorescence intensity (a.u.). Take “TTTTAGTGAATATAATGAAATTTCACAGGGGAGGGGCTGGCGGAGTCACCTAGTGCAG”: the binding signal was 8310 fluorescence intensity (a.u.).

As for “TCGTGCATTGTTGTTGCACAATTTCAAATTGTCACGCATCCGGAGTCACCTAGTGCAG”, the binding signal is 8180 fluorescence intensity (a.u.).

Take “CGCAATCCTTCCGTTCTTTTTTTACATGCTGTTGATGTCACGGAGTCACCTAGTGCAG”: the binding signal was 12000 fluorescence intensity (a.u.). Turning to “CGTCCAGCCTAACTATTAATTTCTTGGTTCTTACCAGTATCGGAGTCACCTAGTGCAG”, the binding signal was 8230 fluorescence intensity (a.u.). Consider “TGGTGATGTGGACGAATCTCATAGGCTCGTTTTTAGATCTCGGAGTCACCTAGTGCAG”, for which the binding signal was 8050 fluorescence intensity (a.u.).

Regarding “CACCGTTGTATTCGTTGTATTCGTTGTAATTAAATCTTTACGGAGTCACCTAGTGCAG”, the binding signal was 9230 fluorescence intensity (a.u.). The result for “AAAAGCCGACCACCGACCCCACGTTCCGCACGCACGAAACCGGAGTCACCTAGTGCAG” reads 8920 fluorescence intensity (a.u.). Consider “TCACGCAAACTCAACCCCACTTTTTTTTTCTCTCGTTTCGCGGAGTCACCTAGTGCAG”, for which the binding signal is 8180 fluorescence intensity (a.u.). In the case of “AACACCAAGCTTTCGCGTCTGCCGACCAAGACGAACCCAACGGAGTCACCTAGTGCAG”, the binding signal is 12000 fluorescence intensity (a.u.). Consider “ATATATGTTCCCCTATGTGTGTCAGTTGTAAACAATAATCCGGAGTCACCTAGTGCAG”, for which the binding signal is 8320 fluorescence intensity (a.u.). For “CTTTCACTACCAGAGTTATGTTTGACACTATCACATTCTCCGGAGTCACCTAGTGCAG” the value was 8770 fluorescence intensity (a.u.).

On to “CGCTCTTCTACCTTTGGCCTCAGTTCTTCAACACAACGTTCGGAGTCACCTAGTGCAG”, for which the binding signal was 8990 fluorescence intensity (a.u.).

Consider “ACATCTCTCCAACCAATACTCTGTCCAGACATTTGAAACACGGAGTCACCTAGTGCAG”, for which the binding signal is 8830 fluorescence intensity (a.u.).

Regarding “CATCCGCATCTTCTTCCTCGTTTGACATTGCCCCTGTTGCCGGAGTCACCTAGTGCAG”, the binding signal was 8760 fluorescence intensity (a.u.). The result for “AGATGGGCAAGTCTTTATACTCGGTTTTGTGATCGAGGGGCGGAGTCACCTAGTGCAG” reads 9490 fluorescence intensity (a.u.); that for “TCCATGCATCTTGTGTTTCTTGTGACCTCTAGGCACTCAACGGAGTCACCTAGTGCAG”, 8260 fluorescence intensity (a.u.); that for “CACACACACAAAGGCACTCTCTCTTCTTCTCTTTCTACTACGGAGTCACCTAGTGCAG”, 9560 fluorescence intensity (a.u.). The result for “CAAGTCACGTATAAAATATTAATCATGTTTTATCATCTAACGGAGTCACCTAGTGCAG” reads 8050 fluorescence intensity (a.u.); that for “ACCGACTCAAAAACCTAACGGCACTTTTTTTATTTTCAACCGGAGTCACCTAGTGCAG”, 10600 fluorescence intensity (a.u.). Regarding “GAGCTTTGTATATAATTTGGTCCATTTTTTTTAAAAAAATCGGAGTCACCTAGTGCAG”, the binding signal is 9830 fluorescence intensity (a.u.).

Regarding “GTTGGTTGCCACCACCATTCCACTAAGTCCGTTCCCATGCCGGAGTCACCTAGTGCAG”, the binding signal was 8480 fluorescence intensity (a.u.). The result for “CGACACATGACTTCACCGCCTGACGCCGCCTCACCACCCACGGAGTCACCTAGTGCAG” reads 9650 fluorescence intensity (a.u.); that for “TTCCGTGGGTGCTTCAAACAATTTTGTGTTCTCTATATTACGGAGTCACCTAGTGCAG”, 8940 fluorescence intensity (a.u.).

“TGCACTGTGACTTCTGACTGTTATAAATTGTGTTCTCTTGCGGAGTCACCTAGTGCAG”: the binding signal was 8730 fluorescence intensity (a.u.). For “TTCGATTCCATTCCTCTACTTTTCTCGGTCAGTGGACATCCGGAGTCACCTAGTGCAG” the value was 10700 fluorescence intensity (a.u.); for “AAACTGCAATTTGCACCGAGTAATAGTATTTGTGTGTTTTCGGAGTCACCTAGTGCAG”, 10400 fluorescence intensity (a.u.). The result for “GCCCATGATCATCATACATCCATACACAACGAGTGTTAGTCGGAGTCACCTAGTGCAG” reads 8940 fluorescence intensity (a.u.).
